# Reference: the supplement of paper PMC8728848
# The other results are listed elsewhere or left out.
# B1: GS7807F-bth-514-18-514 (Bacteroides thetaiotaomicron) (protein)
# chain: AGSCTGNFEEYNTNQFQIHEADPSTLMKSMIETIVNIQQNDSQMMDQMVGQLGGYLTCANVWSGTNFGTFNQSDAWNAGPWNTNFEKIYGNFFQIQEATNESGHYYAFARMIRAITMLRVADCYGPMPYSQVKKGNFYVAYDTEEQVYKNIMEDFASAANVLYNYYKDTNGNAPLASNDPVFSGNYANWARLANSMRLRVAIRISTAYPEMAKENAEAAASHEAGLIEANNDNAMMDCGSQTNPYQLAAVSWGDLRVNANIVDYMNGYGDPRMSKYFNHSTFTGHTQEYVGMRSGEDGFAKSDVAGYSIPAITGTSKLLVFCAAETAFLRAEGKLKNWSVGNKSAKEYYEEGIKLSMEQYGTTMPDNYLTNTEKPTVSHNNDPRGHAYTISNTVAVAWNDNNEEENLQRIITQKWIANYPLGLEAWAEYRRTGYPELYPCIDNLSPSGVDSKRGMRRLRFPYTEVQNNHSNYQQGVSYLKNGGPDNEATDLSWGKTN
# Key:
# Test in all cases: glycan array binding signal (z-score within array); higher = stronger binding
# Conditions in all cases: glycan notation: IUPAC condensed, linker removed
# [1] = molecular target: Man(a1-2)Man(a1-3)[Man(a1-2)Man(a1-6)]Man(a1-6)[Man(a1-2)Man(a1-2)Man(a1-3)]Man
# Procedure, shortened: (§1)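 The binding signal is a Z-score computed within each array. Data were drawn from 3228 arrays in the Consortium for Functional Glycomics database, restricted to those with a known protein sequence. Scores were averaged over arrays of the same protein sequence at different concentrations or buffers, and over linkers, and negative values can be taken as non-binding.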
# [2] = molecular target: Man(a1-2)Man(a1-3)[Man(a1-2)Man(a1-6)]Man(a1-6)[Man(a1-2)Man(a1-2)Man(a1-3)]Man(b1-4)GlcNAc(b1-4)GlcNAc
# Procedure, shortened: as §1
# [3] = molecular target: Man(a1-2)Man(a1-3)[Man(a1-6)]Man(a1-6)[Man(a1-2)Man(a1-3)]Man(b1-4)GlcNAc(b1-4)GlcNAc
# Procedure, shortened: as §1
# [4] = molecular target: Man(a1-2)Man(a1-6)[Man(a1-3)]Man(a1-6)[Man(a1-2)Man(a1-2)Man(a1-3)]Man
# Procedure, shortened: as §1
# [5] = molecular target: Man(a1-2)Man(a1-6)[Man(a1-3)]Man(a1-6)[Man(a1-2)Man(a1-2)Man(a1-3)]Man(b1-4)GlcNAc(b1-4)GlcNAc
# Procedure, shortened: as §1
# [6] = molecular target: Man(a1-3)[Man(a1-6)]Man
# Procedure, shortened: as §1
# [7] = molecular target: Man(a1-3)[Man(a1-6)]Man(a1-6)[Man(a1-2)Man(a1-3)]Man(b1-4)GlcNAc(b1-4)GlcNAc
# Procedure, shortened: as §1
# [8] = molecular target: Man(a1-3)[Man(a1-6)]Man(a1-6)[Man(a1-3)]Man
# Procedure, shortened: as §1
# [9] = molecular target: Man(a1-3)[Man(a1-6)]Man(a1-6)[Man(a1-3)]Man(b1-4)GlcNAc(b1-4)GlcNAc
# Procedure, shortened: as §1
# [10] = molecular target: Man(a1-3)[Man(a1-6)]Man(b1-4)GlcNAc(b1-4)GlcNAc
# Procedure, shortened: as §1
# [11] = molecular target: Man(a1-3)[Man(a1-6)]Man(b1-4)GlcNAc(b1-4)[Fuc(a1-6)]GlcNAc
# Procedure, shortened: as §1
# [12] = molecular target: Man(a1-6)Man
# Procedure, shortened: as §1
# [13] = molecular target: Man(b1-4)GlcNAc
# Procedure, shortened: as §1
# [14] = molecular target: MurNAc(b1-4)GlcNAc
# Procedure, shortened: as §1
# [15] = molecular target: Neu5Ac(a2-3)Gal
# Procedure, shortened: as §1
# [16] = molecular target: Neu5Ac(a2-3)Gal(b1-3)GalNAc
# Procedure, shortened: as §1
# [17] = molecular target: Neu5Ac(a2-3)Gal(b1-3)GalNAc(b1-3)Gal(a1-4)Gal(b1-4)Glc
# Procedure, shortened: as §1
# [18] = molecular target: Neu5Ac(a2-3)Gal(b1-3)GalNAc(b1-4)[Neu5Ac(a2-3)]Gal(b1-4)Glc
# Procedure, shortened: as §1
# [19] = molecular target: Neu5Ac(a2-3)Gal(b1-3)GalNAc(b1-4)[Neu5Ac(a2-8)Neu5Ac(a2-3)]Gal(b1-4)Glc
# Procedure, shortened: as §1
# [20] = molecular target: Neu5Ac(a2-3)Gal(b1-3)GalNAc6S
# Procedure, shortened: as §1
# [21] = molecular target: Neu5Ac(a2-3)Gal(b1-3)GlcNAc
# Procedure, shortened: as §1
# [22] = molecular target: Neu5Ac(a2-3)Gal(b1-3)GlcNAc(b1-2)Man
# Procedure, shortened: as §1
# [23] = molecular target: Neu5Ac(a2-3)Gal(b1-3)GlcNAc(b1-2)Man(a1-3)[GlcNAc(b1-4)][Neu5Ac(a2-3)Gal(b1-3)GlcNAc(b1-2)Man(a1-6)]Man(b1-4)GlcNAc(b1-4)GlcNAc
# Procedure, shortened: as §1
# [24] = molecular target: Neu5Ac(a2-3)Gal(b1-3)GlcNAc(b1-2)Man(a1-3)[Neu5Ac(a2-3)Gal(b1-3)GlcNAc(b1-2)Man(a1-6)]Man(b1-4)GlcNAc(b1-4)GlcNAc
# Procedure, shortened: as §1
# [25] = molecular target: Neu5Ac(a2-3)Gal(b1-3)GlcNAc(b1-3)Gal(b1-3)GlcNAc
# Procedure, shortened: as §1
# [26] = molecular target: Neu5Ac(a2-3)Gal(b1-3)GlcNAc(b1-3)Gal(b1-4)GlcNAc
# Procedure, shortened: as §1
# [27] = molecular target: Neu5Ac(a2-3)Gal(b1-3)GlcNAc(b1-3)GalNAc
# Procedure, shortened: as §1
# [28] = molecular target: Neu5Ac(a2-3)Gal(b1-3)GlcNAc(b1-4)Gal(b1-4)Glc
# Procedure, shortened: as §1
# [29] = molecular target: Neu5Ac(a2-3)Gal(b1-3)GlcNAc(b1-6)GalNAc
# Procedure, shortened: as §1
# [30] = molecular target: Neu5Ac(a2-3)Gal(b1-3)GlcNAc6S
# Procedure, shortened: as §1
# [31] = molecular target: Neu5Ac(a2-3)Gal(b1-3)[Fuc(a1-4)]GlcNAc
# Procedure, shortened: as §1
# [32] = molecular target: Neu5Ac(a2-3)Gal(b1-3)[Fuc(a1-4)]GlcNAc(b1-3)Gal(b1-3)[Fuc(a1-4)]GlcNAc
# Procedure, shortened: as §1
# [33] = molecular target: Neu5Ac(a2-3)Gal(b1-3)[Fuc(a1-4)]GlcNAc(b1-3)Gal(b1-4)[Fuc(a1-3)]GlcNAc
# Procedure, shortened: as §1
# [34] = molecular target: Neu5Ac(a2-3)Gal(b1-3)[GlcNAc(b1-6)]GalNAc
# Procedure, shortened: as §1
# [35] = molecular target: Neu5Ac(a2-3)Gal(b1-3)[Neu5Ac(a2-6)]GalNAc
# Procedure, shortened: as §1
# [36] = molecular target: Neu5Ac(a2-3)Gal(b1-3)[Neu5Ac(a2-6)]GlcNAc(b1-3)[Fuc(a1-3)[Gal(b1-4)]GlcNAc(b1-6)]Gal(b1-4)Glc
# Procedure, shortened: as §1
# [37] = molecular target: Neu5Ac(a2-3)Gal(b1-3)]Neu5Ac(a2-3)Gal(b1-4)]GlcNAc
# Procedure, shortened: as §1
binder,measurement,setting,value
B1,glycan array binding signal (z-score),[1],-0.77
same,glycan array binding signal (z-score),[2],-0.524
same,glycan array binding signal (z-score),[3],-0.618
same,glycan array binding signal (z-score),[4],-0.861
same,glycan array binding signal (z-score),[5],0.65
same,glycan array binding signal (z-score),[6],-0.77
same,glycan array binding signal (z-score),[7],2.84
same,glycan array binding signal (z-score),[8],-0.58
same,glycan array binding signal (z-score),[9],0.373
same,glycan array binding signal (z-score),[10],-0.766
same,glycan array binding signal (z-score),[11],-0.839
same,glycan array binding signal (z-score),[12],0.079
same,glycan array binding signal (z-score),[13],-0.74
same,glycan array binding signal (z-score),[14],-0.903
same,glycan array binding signal (z-score),[15],-0.866
same,glycan array binding signal (z-score),[16],-0.393
same,glycan array binding signal (z-score),[17],-0.63
same,glycan array binding signal (z-score),[18],-0.663
same,glycan array binding signal (z-score),[19],-0.426
same,glycan array binding signal (z-score),[20],-0.85
same,glycan array binding signal (z-score),[21],-0.648
same,glycan array binding signal (z-score),[22],0.022
same,glycan array binding signal (z-score),[23],-0.496
same,glycan array binding signal (z-score),[24],0.876
same,glycan array binding signal (z-score),[25],-0.891
same,glycan array binding signal (z-score),[26],-0.842
same,glycan array binding signal (z-score),[27],-0.871
same,glycan array binding signal (z-score),[28],-0.518
same,glycan array binding signal (z-score),[29],2.43
same,glycan array binding signal (z-score),[30],-0.491
same,glycan array binding signal (z-score),[31],-0.85
same,glycan array binding signal (z-score),[32],-0.848
same,glycan array binding signal (z-score),[33],0.124
same,glycan array binding signal (z-score),[34],-0.857
same,glycan array binding signal (z-score),[35],-0.819
same,glycan array binding signal (z-score),[36],-0.355
same,glycan array binding signal (z-score),[37],-0.664

# Rewritten as tab-separated lines: entries from further up.
binder	measurement	setting	value
B1	glycan array binding signal (z-score)	[9]	0.373
same	glycan array binding signal (z-score)	[10]	-0.766
